Hit rate of the full screen: of about 330,000 compounds, about 1,000 (0.3%) were called active. The shares of active, inactive and inconclusive entries below differ from those in the screen. Calls come from the whole dose curve; as a rule, active = well fitted inhibition curve with a large enough effect; inconclusive = small, poorly fitted or top-dose-only effect; inactive = no such curve, though single readings can be large or run the other way; tested in mouse RAW 264.7 cells. Potencies of inconclusive entries are doubtful fits and often do not repeat.
Assay: qHTS for Inhibitors of Cell Surface uPA Generation; note: nearly all actives have a fitted effect of over 55% in size
Conditions: cell surface uPA generation assay; series mostly up to 38.3 µM
In short: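 RAW 264.7, 4000 cells/well, o/n 37 C; cpd 1:5 dilution, up to 38.3 uM final; 24 h 37 C/5% CO2 with reagent; ATP-Lite lum. High ATP = LF entry blocked.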
Potency is the fitted concentration of half-maximal effect.

| SMILES | Potency |
| --- | --- |
| N=C1c2ccccc2CN1NC(=O)c1ccc(Br)o1 | inconclusive: 12.6 µM [inhibitor, single point] |
| CCOC(=O)C1(c2ccccc2)CCN(CCC(=O)Nc2ccc(C(=O)OC)cc2)CC1 | inconclusive: 11.2 µM [inhibitor, single point] |
| CCC1(C)OC(c2ccccc2)=C/C(=C/C=C2C(=O)NC(=O)NC2=O)O1 (configuration not stated) | inconclusive: 28.2 µM [inhibitor, single point] |
| Oc1ccccc1O | inconclusive: 1.78 µM [inhibitor, partial curve] |
| O=c1[nH]c(O)c(N=Nc2ccc(SC(F)F)cc2)c(=O)[nH]1 | inactive |
| COc1ccc(-c2nc(C(N)=O)c3[nH]c(=O)n(-c4ccccc4OC)c3n2)c(OC)c1 | active: 11.2 µM |
| Cc1ccc(Cn2c(C(CO)Nc3nc(-c4ccc(F)cc4)cs3)nc3ccccc32)cc1 (configuration not stated) | inconclusive: 12.6 µM [inhibitor, single point] |
| O=C(N/N=C/c1c(O)n(CCC2=CCCCC2)c(=S)[nH]c1=O)c1ccccc1 | inactive |
| COc1cc(C(=O)N/N=C/c2ccc(OC(=O)N3CCOCC3)cc2)cc(OC)c1OC | inconclusive: 14.1 µM [inhibitor, single point] |
| COc1cccc(-c2nn(CCC#N)cc2C(=O)Nc2ccccc2Cl)c1 | inconclusive: 28.2 µM [inhibitor, single point] |
| COc1ccc(-c2noc(=O)n2Cc2cc(C)ccc2C)cc1 | inconclusive: 28.2 µM [inhibitor, single point] |
| Nc1ncn([C@@H]2O[C@H](CO)[C@@H](O)[C@H]2O)c(=O)n1 | inconclusive: 0.794 µM [inhibitor, full curve, poor fit] |
| CC(C)Cn1c(O)c(N=NC(=O)c2cccc(S(=O)(=O)N3CCCCC3)c2)c2ccccc21 | inconclusive: 1.12 µM [inhibitor, full curve, poor fit] |
| CN(C1=C(NC(=O)c2ccccc2)C(=O)c2ccccc2C1=O)C1CCS(=O)(=O)C1 (configuration not stated) | active: 10 µM |
| Cn1c(=O)oc2cc(S(=O)(=O)N3CCCc4ccccc43)ccc21 | active: 2.24 µM |
| O=C(NN=Cc1ccc(N(CCCl)CCCl)cc1)c1cccc([N+](=O)[O-])c1 | inactive |
| COc1ccc(/C=C2\Sc3ccc(C(=O)N4CCN(Cc5ccccc5)CC4)cc3N(C)C2=O)cc1OC | inconclusive: 12.6 µM [inhibitor, single point] |
| CC1(C)CC(=O)C2=C(C1)N1C(=C(C#N)C2c2ccc(Cl)cc2)N=C(N)c2ccccc21 (configuration not stated) | inconclusive: 28.2 µM [inhibitor, single point] |
| CCCCCC(=O)N[C@@H](c1ccccc1)[C@@H](O)C(=O)O[C@H]1C[C@@]2(O)[C@@H](OC(=O)c3ccccc3)C3[C@](C)(C(=O)[C@H](O)C(=C1C)C2(C)C)[C@@H](OC1OCC(O)C(O)C1O)C[C@H]1OC[C@@]31OC(C)=O (some centres not stated) | inconclusive: 3.16 µM [inhibitor, partial curve, poor fit] |

| SMILES | Potency |
| --- | --- |
| Cc1c(N=Nc2c(O)n(Cc3ccccc3)c(=O)[nH]c2=O)c(=O)n(-c2ccccc2)n1C | inconclusive: 12.6 µM [inhibitor, partial curve, poor fit] |
| Cc1ccc(CN2C3CCCC2CC(NC(=O)Nc2cccc(F)c2)C3)cc1 (configuration not stated) | inconclusive: 10 µM [inhibitor, single point] |
| C[C@H](CCC(=O)OCc1cn(CC(=O)c2ccc(O)cc2)nn1)C1CC[C@H]2[C@@H]3CC[C@@H]4C[C@H](O)CC[C@]4(C)[C@H]3C[C@H](O)[C@]12C (some centres not stated) | inconclusive: 28.2 µM [inhibitor, single point] |
| CCOC(=O)C1C2NC(=O)N(Cc3ccccc3)C1(C)Oc1c(OC)cccc12 (configuration not stated) | inconclusive: 3.98 µM [inhibitor, partial curve] |
| C[C@]12c3[nH]c4ccc(Cl)cc4c3CCN1C(=O)[C@@H](CC(=O)NCc1ccco1)C[C@@H]2C(=O)N1CCCCC1 | inconclusive: 14.1 µM [inhibitor, single point] |
| Cc1nc2ccccc2c(=O)n1-c1ccc(-c2ccccc2)cc1 | inconclusive: 7.94 µM [inhibitor, single point] |
| C[C@@H](N)Cc1cnc[nH]1 | inactive |
| Cc1ccccc1-n1c(/C=C/c2ccccn2)nc2ccccc2c1=O | inconclusive: 8.91 µM [inhibitor, single point] |
| O=[N+]([O-])c1ccc(Cl)c(S(=O)(=O)Nc2cccc(-c3ccc(N4CCCC4)nn3)c2)c1 | inconclusive: 7.94 µM [inhibitor, partial curve] |
| CCCCCCn1c(=O)c(C(=O)Nc2ncccc2C)c(O)c2ccccc21 | inconclusive: 12.6 µM [inhibitor, partial curve, poor fit] |
| CCOC(=O)[C@]12Cc3cc(C)ccc3[C@H]1N(Cc1ccccc1)C(=O)c1ccccc12 | inconclusive: 28.2 µM [inhibitor, single point] |
| c1ccc(CN2CCN(CCCNc3ccc4nnc(-c5ccccc5)n4n3)CC2)cc1 | inconclusive: 12.6 µM [inhibitor, single point] |
| CC(C(=O)O)N(C(=O)c1ccccc1)c1ccc(F)c(Cl)c1 (configuration not stated) | inactive |
| Cc1ccc(-n2c(O)c(/C=N/N3CCCCC3c3cccnc3)c(=O)[nH]c2=S)cc1 (configuration not stated) | inactive |
| CC(=O)O[C@@H]1/C=C/[C@](C)(O)C[C@@H](C)C/C=C/[C@H]2[C@@H]3O[C@]3(C)[C@@H](C)[C@H]3[C@H](Cc4ccccc4)NC(=O)[C@@]312 | inconclusive: 0.794 µM [inhibitor, full curve, poor fit] |
| C[C@]12CCC3C(CC[C@H]4C[C@@H](O)CC[C@]34C)[C@H]1C=CC2=O (some centres not stated) | inactive |
| CCNC(=S)NCCC1=c2ccccc2=N/C1=C\c1c(O)n(C)c(=O)n(C)c1=O | inconclusive: 10 µM [inhibitor, single point] |
| COC(=O)[C@@H]1C[C@H]1[C@@H](NP(=O)(c1ccccc1)c1ccccc1)c1ccccc1 | inconclusive: 3.16 µM [inhibitor, partial curve, poor fit] |
| CC1(C)Cc2c(sc3nc(-c4cccs4)n(N)c(=O)c23)CO1 | inconclusive: 12.6 µM [inhibitor, single point] |

Fetched by structure from above (2):

| SMILES | Potency |
| --- | --- |
| O=[N+]([O-])c1ccc(Cl)c(S(=O)(=O)Nc2cccc(-c3ccc(N4CCCC4)nn3)c2)c1 | inconclusive: 7.94 µM [inhibitor, partial curve] |
| C[C@@H](N)Cc1cnc[nH]1 | inactive |

(further entries)

| SMILES | Potency |
| --- | --- |
| Cc1cc(/C=C2/SC(=S)N(c3ccc([N+](=O)[O-])cc3)C2=O)c(C)n1-c1cccnc1 | inconclusive: 2.24 µM [inhibitor, full curve, poor fit] |
| C/C(=N/Nc1ccnc2cc(Cl)ccc12)c1ccc(N)cc1 | inconclusive: 12.6 µM [inhibitor, single point] |
| CC1CCCCN1Cc1c[nH]c2ccccc12 (configuration not stated) | inconclusive: 11.2 µM [inhibitor, single point] |
| C[C@@]12C(=O)Nc3ccc(F)cc3C(=O)N1[C@H]1c3ccccc3OC[C@@H]1[C@@H]2c1ccccc1 | inconclusive: 12.6 µM [inhibitor, single point] |
| CCOC(=O)/C(C#N)=C/C=C1\C=Cc2ccccc2N1CC | inconclusive: 10 µM [inhibitor, single point] |
| Cc1ccc(O)c(NC(=O)c2noc(C(C)C)c2[N+](=O)[O-])c1 | inconclusive: 11.2 µM [inhibitor, single point] |
| C=C1C(=O)O[C@@H]2C[C@@H](C)[C@H]3C=CC(=O)[C@]3(O)C[C@@H]12 | inconclusive: 12.6 µM [inhibitor, single point] |
| COc1cc(-c2cccc([C@H]3[C@@H]4C=CC[C@@H](C)[C@@H]4C(=O)N3Cc3ccccc3)c2)cc(OC)c1OC | inconclusive: 28.2 µM [inhibitor, single point] |
| N#Cc1c(/N=C/C2C(=O)NC(=S)NC2=O)sc2c1CCCC2 | inactive |
| Cc1ccc(C[n+]2c(-c3ccc(C)cc3)cc(-c3ccc(C)cc3)cc2-c2ccc(C)cc2)cc1 | inconclusive: 1.58 µM [inhibitor, full curve, poor fit] |
| O=C(COc1ccccc1-c1ccccc1)N/N=C/c1ccccn1 | inconclusive: 11.2 µM [inhibitor, partial curve, poor fit] |
| CNc1ccc2oc(C[C@H]3O[C@@]4(CC[C@H]3C)O[C@H]([C@H](C)C(=O)c3ccc[nH]3)[C@H](C)C[C@H]4C)nc2c1C(=O)O | inconclusive: 1.12 µM [inhibitor, full curve] |
| COC(=O)[C@]12OC[C@]34C([C@@H](O)[C@@H]1O)[C@]1(C)CC(=O)C(O)=C(C)[C@@H]1C[C@H]3OC(=O)[C@H](O)[C@@H]24 (some centres not stated) | inconclusive: 7.08 µM [inhibitor, partial curve] |
| COC(=O)C1=C(c2ccc(-c3ccccc3)c(F)c2)C[C@@H]2CC[C@H]1N2C(=O)N1CCc2cc(OC)c(OC)cc2C1 | inconclusive: 12.6 µM [inhibitor, single point] |
| N#C/C(N)=C(/N)C#N | inconclusive: 5.62 µM [inhibitor, partial curve, poor fit] |
| CC(C)N1C(=S)SC(C)(C)C1n1oc(=O)n(-c2cccc(Cl)c2)c1=O (configuration not stated) | inconclusive: 0.0112 µM [inhibitor, full curve, poor fit] |
| COc1ccc(Nc2nc(N)nc(CCl)n2)cc1 | active: 2.51 µM |
| COc1cc(C(=O)N2CCN(c3cccc(C)c3C)CC2)cc(OC)c1OC | inconclusive: 0.891 µM [inhibitor, full curve, poor fit] |
| O=C1/C(=C/c2ccccc2)C[C@@]2(O)[C@H]3Cc4ccc(O)c5c4[C@@]2(CCN3CC2CC2)C1O5 (some centres not stated) | inconclusive: 0.891 µM [inhibitor, full curve, poor fit] |

Reference: PubChem BioAssay AID540303 (National Center for Advancing Translational Sciences (NCATS), 2011)
